# Data reported in the supplement of paper PMC11006884.
# Amino acid sequences for entries named in this document (tags omitted). A change or cut given only in a name is not applied to a line headed by its entry.
# UniProt Q92974: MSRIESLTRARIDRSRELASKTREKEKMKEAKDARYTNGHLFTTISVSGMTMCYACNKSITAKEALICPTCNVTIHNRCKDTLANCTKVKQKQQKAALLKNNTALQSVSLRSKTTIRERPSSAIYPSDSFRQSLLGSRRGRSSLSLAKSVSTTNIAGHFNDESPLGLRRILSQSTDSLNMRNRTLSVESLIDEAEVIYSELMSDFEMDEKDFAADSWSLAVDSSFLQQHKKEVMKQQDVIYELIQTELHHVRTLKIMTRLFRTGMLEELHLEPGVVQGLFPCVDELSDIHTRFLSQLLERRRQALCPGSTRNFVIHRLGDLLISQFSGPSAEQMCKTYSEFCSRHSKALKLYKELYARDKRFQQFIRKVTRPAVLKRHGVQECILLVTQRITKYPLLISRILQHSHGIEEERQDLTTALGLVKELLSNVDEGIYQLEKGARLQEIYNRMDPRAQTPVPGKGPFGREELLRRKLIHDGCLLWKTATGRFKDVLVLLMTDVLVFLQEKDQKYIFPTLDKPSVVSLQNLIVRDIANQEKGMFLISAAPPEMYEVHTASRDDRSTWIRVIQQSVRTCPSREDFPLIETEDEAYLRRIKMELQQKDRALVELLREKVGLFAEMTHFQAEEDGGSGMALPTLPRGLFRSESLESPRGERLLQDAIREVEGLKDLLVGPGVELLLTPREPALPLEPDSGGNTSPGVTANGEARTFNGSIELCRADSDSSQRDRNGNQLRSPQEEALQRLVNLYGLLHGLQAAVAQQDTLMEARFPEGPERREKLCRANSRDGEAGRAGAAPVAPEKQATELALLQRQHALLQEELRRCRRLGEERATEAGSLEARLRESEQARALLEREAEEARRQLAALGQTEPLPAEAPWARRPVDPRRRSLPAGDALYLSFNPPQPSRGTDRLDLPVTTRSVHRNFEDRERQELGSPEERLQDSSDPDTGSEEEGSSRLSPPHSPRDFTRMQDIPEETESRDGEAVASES
# UniProt Q96GM5, whole entry, looked up: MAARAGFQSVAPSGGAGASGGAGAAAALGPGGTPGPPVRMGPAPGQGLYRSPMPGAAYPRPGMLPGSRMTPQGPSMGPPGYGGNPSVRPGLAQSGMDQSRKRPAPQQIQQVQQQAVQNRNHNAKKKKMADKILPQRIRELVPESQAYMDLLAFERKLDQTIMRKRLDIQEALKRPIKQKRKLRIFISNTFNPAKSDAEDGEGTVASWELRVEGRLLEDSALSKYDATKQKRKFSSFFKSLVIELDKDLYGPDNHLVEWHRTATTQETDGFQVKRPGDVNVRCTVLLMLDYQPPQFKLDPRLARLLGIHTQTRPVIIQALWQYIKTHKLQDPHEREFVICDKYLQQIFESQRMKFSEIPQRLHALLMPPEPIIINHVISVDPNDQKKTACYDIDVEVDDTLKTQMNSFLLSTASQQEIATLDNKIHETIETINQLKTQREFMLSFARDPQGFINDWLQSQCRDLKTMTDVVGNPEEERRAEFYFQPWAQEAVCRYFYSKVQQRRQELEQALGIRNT
# UniProt Q96HJ9: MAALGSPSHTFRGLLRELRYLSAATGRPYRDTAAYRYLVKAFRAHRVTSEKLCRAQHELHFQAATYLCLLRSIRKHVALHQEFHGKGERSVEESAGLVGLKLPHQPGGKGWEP
# UniProt Q92804: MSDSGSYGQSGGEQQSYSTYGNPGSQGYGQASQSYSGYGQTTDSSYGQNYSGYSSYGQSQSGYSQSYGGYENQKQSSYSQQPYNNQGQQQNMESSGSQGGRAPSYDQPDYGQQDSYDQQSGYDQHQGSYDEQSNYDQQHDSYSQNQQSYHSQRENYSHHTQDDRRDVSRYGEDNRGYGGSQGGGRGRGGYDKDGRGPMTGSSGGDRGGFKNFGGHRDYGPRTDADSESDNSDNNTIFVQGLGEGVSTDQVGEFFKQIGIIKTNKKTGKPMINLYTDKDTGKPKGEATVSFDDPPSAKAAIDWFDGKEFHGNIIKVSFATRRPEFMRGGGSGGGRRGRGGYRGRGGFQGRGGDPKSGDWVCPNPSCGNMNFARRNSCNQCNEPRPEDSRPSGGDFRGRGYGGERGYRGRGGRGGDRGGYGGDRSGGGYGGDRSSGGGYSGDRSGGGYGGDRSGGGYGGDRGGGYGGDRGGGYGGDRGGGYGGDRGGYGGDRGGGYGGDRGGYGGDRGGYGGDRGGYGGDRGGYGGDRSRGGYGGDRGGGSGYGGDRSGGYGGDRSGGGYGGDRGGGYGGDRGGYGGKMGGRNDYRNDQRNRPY
# UniProt Q93073: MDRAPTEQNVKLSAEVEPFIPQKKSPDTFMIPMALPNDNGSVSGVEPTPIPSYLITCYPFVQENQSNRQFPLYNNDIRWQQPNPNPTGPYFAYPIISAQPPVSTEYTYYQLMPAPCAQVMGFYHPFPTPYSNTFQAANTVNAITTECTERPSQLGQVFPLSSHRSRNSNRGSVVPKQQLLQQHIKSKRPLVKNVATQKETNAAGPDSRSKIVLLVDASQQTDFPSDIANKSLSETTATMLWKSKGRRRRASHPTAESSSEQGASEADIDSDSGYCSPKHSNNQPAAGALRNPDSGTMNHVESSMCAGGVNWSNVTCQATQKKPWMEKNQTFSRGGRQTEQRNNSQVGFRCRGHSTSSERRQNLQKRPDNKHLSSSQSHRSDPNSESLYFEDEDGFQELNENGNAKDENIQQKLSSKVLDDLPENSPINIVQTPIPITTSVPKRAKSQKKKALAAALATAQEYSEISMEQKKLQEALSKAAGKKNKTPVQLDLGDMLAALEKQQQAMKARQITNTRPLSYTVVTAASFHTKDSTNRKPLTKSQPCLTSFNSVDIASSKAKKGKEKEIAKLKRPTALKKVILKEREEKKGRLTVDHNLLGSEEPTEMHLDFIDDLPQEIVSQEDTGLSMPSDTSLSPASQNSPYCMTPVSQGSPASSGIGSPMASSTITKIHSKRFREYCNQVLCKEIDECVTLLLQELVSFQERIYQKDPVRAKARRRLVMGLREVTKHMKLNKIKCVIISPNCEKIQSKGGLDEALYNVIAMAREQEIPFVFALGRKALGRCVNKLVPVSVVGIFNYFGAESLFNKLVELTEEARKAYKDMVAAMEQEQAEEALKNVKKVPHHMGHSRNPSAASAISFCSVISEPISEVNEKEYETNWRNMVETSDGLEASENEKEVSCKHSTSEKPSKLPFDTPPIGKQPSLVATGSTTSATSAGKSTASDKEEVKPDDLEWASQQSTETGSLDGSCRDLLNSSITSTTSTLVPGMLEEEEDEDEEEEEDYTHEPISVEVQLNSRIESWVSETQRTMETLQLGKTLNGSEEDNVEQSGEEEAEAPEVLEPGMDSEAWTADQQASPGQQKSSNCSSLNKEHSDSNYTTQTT
# UniProt Q93008, whole entry, looked up: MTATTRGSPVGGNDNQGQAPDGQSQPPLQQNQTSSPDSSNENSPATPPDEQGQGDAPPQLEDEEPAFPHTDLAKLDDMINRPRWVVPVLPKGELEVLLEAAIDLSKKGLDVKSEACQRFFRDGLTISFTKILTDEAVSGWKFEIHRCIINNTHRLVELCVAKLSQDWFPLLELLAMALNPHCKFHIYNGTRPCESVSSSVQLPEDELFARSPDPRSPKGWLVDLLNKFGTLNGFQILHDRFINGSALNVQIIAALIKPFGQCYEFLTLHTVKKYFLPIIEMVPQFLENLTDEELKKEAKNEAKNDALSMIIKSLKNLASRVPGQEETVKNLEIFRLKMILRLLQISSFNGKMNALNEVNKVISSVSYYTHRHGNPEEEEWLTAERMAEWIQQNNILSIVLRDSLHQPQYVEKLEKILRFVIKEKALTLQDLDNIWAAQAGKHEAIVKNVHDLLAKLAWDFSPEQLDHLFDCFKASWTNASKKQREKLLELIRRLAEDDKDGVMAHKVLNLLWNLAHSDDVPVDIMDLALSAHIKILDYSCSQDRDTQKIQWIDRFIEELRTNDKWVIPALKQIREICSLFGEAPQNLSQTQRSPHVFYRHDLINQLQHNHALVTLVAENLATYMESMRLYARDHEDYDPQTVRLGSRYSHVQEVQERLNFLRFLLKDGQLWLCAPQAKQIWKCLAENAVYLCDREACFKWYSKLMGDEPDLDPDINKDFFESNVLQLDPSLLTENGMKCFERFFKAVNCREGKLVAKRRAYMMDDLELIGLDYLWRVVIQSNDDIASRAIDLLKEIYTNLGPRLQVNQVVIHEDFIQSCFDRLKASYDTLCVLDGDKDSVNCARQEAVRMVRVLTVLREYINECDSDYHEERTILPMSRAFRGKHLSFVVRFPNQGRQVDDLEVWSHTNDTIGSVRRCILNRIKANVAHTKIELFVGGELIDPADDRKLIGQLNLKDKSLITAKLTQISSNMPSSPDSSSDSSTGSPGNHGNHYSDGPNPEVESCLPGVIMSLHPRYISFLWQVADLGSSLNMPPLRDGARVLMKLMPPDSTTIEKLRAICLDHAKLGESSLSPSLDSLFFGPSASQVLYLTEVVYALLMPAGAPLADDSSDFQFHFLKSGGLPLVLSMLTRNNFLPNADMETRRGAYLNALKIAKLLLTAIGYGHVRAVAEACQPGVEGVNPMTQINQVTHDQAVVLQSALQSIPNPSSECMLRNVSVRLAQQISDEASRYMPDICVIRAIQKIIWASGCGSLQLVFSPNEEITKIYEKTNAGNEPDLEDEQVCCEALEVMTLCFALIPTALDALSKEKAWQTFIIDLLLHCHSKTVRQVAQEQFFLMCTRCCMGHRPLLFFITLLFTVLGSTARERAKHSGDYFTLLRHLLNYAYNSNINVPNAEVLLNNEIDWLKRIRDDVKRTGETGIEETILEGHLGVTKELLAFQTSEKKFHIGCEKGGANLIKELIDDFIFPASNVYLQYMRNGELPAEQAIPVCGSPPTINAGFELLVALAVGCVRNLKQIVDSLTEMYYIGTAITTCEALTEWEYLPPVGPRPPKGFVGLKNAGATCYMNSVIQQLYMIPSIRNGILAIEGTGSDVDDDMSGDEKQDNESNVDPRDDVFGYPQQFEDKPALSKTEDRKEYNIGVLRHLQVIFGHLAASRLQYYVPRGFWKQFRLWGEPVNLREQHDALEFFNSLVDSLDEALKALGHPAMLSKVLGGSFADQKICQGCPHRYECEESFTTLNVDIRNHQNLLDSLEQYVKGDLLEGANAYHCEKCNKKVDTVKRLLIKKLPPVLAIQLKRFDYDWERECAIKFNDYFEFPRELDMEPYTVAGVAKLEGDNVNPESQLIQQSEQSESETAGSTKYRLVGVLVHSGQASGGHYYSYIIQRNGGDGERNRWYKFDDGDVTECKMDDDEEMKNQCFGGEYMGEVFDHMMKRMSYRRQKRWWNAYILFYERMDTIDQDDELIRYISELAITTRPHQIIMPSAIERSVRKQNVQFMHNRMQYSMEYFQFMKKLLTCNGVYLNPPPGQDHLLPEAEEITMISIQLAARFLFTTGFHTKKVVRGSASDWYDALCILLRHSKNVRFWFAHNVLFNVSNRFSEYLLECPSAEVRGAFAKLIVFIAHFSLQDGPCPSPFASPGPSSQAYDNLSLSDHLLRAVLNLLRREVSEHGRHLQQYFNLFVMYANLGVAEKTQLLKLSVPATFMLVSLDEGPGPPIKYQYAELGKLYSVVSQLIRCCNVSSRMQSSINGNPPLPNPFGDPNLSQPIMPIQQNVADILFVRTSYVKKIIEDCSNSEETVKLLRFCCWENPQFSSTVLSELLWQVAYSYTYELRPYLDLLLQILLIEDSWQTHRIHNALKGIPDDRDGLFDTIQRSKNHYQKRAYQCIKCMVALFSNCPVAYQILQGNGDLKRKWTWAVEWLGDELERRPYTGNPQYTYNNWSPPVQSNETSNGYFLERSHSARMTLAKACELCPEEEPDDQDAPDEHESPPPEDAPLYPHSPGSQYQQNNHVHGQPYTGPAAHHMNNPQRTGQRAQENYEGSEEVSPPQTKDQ
# UniProt Q92945: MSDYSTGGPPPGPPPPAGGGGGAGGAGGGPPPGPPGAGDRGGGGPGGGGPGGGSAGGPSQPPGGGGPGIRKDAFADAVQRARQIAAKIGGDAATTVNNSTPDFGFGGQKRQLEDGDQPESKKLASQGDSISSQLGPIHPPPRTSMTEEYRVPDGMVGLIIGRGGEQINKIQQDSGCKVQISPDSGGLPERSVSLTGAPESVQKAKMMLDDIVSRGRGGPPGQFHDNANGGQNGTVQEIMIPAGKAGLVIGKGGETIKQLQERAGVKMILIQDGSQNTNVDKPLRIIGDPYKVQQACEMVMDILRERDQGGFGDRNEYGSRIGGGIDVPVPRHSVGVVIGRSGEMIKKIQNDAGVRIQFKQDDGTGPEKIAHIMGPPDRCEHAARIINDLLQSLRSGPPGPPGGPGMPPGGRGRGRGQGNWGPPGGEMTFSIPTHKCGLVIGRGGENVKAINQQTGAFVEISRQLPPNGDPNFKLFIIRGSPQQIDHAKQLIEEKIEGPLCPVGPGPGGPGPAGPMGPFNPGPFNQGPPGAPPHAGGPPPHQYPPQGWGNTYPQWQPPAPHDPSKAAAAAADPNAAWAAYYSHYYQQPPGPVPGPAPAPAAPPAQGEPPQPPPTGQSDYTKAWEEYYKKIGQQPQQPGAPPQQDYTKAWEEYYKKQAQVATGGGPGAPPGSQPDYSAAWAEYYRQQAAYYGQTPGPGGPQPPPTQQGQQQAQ
# The list shows a part of the results, in another mix than the full data.
# Compound: COC(=O)C#Cc1ccccc1 [methyl 3-phenylpropiolate]
# Assay: log2 ratio of iodoacetamide-alkyne labeling of the cysteine site, DMSO over compound (competition); higher = stronger covalent engagement of the cysteine by the compound, active = 1 or more
# Conditions: 500 µM; treatment time 1 h; system: HEK293T cell lysate
# Outline: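 After 1 h at ambient temperature with vehicle or electrophile (500 µM), HEK293T lysate (2 mg/mL) was labelled for 1 h with iodoacetamide alkyne and clicked to sCIP-TMT reagents. Pooled samples were trypsin-digested overnight at 37 °C, streptavidin-enriched, acid-eluted and analysed by Orbitrap Eclipse LC-MS/MS with FAIMS, then quantified in FragPipe over three replicates with duplicate channels. A cysteine's log2 competition ratio is its mean control-channel over mean compound-channel reporter intensity. Cysteines quantified in only one replicate were not included.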
row,Target,log2 ratio of iodoacetamide-alkyne labeling
1,ARHGEF2 C715 (UniProt Q92974),inactive: 0.339
2,SMARCD1 C492 (UniProt Q96GM5),inactive: 0.446
3,FMC1 C68 (UniProt Q96HJ9),inactive: 0.229
4,UniProt Q92616_C36,inactive: 0.339
5,TAF15 C365 (UniProt Q92804),inactive: -0.216
6,GPKOW C137 (UniProt Q92917),inactive: 0.23
7,ARHGEF2 C335 (UniProt Q92974),inactive: 0.389
8,Sirt1 C574 (UniProt Q96EB6),inactive: 0.175
9,SECISBP2L C544 (UniProt Q93073),inactive: 0.341
10,USP9X C864 (UniProt Q93008),inactive: 0.12
11,KHSRP C176 (UniProt Q92945),inactive: 0.0409
12,ARHGEF2 C383 (UniProt Q92974),inactive: 0.434
13,DDX27 C321 (UniProt Q96GQ7),inactive: 0.126
14,TNPO1 C103 (UniProt Q92973),inactive: 0.421

# 2 consecutive entries already listed:
row,Target,log2 ratio of iodoacetamide-alkyne labeling
2,SMARCD1 C492 (UniProt Q96GM5),inactive: 0.446
3,FMC1 C68 (UniProt Q96HJ9),inactive: 0.229
